{"sequences": {"note": "Sequences of proteins named here, by UniProt entry; tags and fusion partners are left off. A change or cut given only in a name is not applied to a line headed by its entry.", "UniProt Q6YHK3": "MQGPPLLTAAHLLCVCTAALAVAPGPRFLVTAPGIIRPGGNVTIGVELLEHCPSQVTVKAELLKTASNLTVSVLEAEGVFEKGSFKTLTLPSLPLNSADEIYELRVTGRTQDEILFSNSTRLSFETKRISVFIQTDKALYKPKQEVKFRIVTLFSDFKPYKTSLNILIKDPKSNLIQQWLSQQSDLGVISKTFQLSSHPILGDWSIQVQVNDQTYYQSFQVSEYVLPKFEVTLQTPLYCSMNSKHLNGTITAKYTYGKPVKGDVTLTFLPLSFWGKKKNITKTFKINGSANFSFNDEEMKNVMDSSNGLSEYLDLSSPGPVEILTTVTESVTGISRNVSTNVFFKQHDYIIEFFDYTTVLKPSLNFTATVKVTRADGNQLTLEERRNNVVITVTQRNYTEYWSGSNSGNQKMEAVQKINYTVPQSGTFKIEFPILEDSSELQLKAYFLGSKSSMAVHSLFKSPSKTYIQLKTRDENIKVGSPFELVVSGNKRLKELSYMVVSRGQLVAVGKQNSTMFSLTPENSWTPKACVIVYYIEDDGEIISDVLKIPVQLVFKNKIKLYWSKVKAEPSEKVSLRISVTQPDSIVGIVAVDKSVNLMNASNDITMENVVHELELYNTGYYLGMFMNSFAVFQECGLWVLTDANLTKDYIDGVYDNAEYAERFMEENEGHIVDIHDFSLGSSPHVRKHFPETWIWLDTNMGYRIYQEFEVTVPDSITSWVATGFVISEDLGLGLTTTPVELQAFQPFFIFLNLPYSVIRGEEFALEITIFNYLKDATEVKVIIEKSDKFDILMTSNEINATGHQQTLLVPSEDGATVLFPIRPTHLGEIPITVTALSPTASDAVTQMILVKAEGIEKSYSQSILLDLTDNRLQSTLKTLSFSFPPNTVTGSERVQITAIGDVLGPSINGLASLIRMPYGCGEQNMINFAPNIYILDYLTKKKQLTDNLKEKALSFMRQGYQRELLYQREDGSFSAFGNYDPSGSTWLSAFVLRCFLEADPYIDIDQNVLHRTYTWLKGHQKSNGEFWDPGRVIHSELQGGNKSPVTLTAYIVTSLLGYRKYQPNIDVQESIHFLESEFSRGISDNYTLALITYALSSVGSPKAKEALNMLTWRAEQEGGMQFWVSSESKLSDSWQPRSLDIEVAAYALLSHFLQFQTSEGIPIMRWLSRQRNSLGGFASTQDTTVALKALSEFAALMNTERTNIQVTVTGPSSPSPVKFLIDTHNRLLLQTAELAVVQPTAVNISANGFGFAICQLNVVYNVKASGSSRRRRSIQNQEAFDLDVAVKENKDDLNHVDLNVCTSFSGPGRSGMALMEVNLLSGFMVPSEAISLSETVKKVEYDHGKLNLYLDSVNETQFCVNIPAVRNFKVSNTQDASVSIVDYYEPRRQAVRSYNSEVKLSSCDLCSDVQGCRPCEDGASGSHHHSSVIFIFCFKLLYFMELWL", "UniProt Q9H0W5": "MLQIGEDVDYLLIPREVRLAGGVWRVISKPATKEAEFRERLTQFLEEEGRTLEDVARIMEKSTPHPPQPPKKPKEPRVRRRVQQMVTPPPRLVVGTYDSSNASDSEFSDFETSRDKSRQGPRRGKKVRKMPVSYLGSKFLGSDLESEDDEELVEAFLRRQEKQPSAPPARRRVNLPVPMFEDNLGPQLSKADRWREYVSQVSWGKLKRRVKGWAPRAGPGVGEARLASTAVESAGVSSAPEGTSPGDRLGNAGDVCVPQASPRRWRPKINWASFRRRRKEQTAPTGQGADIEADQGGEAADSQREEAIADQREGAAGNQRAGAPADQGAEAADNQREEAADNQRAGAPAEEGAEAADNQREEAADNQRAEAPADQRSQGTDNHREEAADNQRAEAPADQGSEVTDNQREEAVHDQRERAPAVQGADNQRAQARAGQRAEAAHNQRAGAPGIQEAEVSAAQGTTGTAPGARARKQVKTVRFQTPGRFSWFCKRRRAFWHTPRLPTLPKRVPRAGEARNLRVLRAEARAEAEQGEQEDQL", "UniProt Q9UK58": "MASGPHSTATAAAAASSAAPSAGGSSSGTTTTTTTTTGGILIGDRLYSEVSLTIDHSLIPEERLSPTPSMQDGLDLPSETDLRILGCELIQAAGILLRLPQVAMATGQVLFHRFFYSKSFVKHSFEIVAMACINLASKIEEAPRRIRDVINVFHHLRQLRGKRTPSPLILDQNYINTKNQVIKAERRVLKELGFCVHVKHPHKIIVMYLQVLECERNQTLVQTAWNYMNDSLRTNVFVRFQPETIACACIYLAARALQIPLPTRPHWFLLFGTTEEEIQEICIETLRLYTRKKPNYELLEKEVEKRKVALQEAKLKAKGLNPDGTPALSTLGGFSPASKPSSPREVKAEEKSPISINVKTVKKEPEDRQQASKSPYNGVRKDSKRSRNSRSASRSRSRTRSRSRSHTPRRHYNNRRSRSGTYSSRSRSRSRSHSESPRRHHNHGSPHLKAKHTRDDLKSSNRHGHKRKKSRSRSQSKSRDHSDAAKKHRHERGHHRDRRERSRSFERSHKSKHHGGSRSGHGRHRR", "UniProt Q92526, whole entry, looked up": "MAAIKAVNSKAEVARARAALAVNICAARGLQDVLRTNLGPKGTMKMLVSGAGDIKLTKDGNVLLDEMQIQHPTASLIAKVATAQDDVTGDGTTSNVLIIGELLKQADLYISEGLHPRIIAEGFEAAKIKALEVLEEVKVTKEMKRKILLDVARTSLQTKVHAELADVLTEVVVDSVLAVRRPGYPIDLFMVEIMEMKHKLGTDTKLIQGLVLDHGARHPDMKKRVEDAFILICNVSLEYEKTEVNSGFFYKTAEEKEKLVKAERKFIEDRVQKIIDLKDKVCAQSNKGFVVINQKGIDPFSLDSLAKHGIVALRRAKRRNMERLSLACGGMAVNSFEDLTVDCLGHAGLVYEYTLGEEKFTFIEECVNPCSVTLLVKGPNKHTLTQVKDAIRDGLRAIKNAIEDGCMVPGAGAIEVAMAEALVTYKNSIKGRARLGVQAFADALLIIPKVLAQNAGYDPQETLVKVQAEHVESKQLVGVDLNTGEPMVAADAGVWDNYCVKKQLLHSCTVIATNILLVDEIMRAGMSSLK", "UniProt Q3V6T2": "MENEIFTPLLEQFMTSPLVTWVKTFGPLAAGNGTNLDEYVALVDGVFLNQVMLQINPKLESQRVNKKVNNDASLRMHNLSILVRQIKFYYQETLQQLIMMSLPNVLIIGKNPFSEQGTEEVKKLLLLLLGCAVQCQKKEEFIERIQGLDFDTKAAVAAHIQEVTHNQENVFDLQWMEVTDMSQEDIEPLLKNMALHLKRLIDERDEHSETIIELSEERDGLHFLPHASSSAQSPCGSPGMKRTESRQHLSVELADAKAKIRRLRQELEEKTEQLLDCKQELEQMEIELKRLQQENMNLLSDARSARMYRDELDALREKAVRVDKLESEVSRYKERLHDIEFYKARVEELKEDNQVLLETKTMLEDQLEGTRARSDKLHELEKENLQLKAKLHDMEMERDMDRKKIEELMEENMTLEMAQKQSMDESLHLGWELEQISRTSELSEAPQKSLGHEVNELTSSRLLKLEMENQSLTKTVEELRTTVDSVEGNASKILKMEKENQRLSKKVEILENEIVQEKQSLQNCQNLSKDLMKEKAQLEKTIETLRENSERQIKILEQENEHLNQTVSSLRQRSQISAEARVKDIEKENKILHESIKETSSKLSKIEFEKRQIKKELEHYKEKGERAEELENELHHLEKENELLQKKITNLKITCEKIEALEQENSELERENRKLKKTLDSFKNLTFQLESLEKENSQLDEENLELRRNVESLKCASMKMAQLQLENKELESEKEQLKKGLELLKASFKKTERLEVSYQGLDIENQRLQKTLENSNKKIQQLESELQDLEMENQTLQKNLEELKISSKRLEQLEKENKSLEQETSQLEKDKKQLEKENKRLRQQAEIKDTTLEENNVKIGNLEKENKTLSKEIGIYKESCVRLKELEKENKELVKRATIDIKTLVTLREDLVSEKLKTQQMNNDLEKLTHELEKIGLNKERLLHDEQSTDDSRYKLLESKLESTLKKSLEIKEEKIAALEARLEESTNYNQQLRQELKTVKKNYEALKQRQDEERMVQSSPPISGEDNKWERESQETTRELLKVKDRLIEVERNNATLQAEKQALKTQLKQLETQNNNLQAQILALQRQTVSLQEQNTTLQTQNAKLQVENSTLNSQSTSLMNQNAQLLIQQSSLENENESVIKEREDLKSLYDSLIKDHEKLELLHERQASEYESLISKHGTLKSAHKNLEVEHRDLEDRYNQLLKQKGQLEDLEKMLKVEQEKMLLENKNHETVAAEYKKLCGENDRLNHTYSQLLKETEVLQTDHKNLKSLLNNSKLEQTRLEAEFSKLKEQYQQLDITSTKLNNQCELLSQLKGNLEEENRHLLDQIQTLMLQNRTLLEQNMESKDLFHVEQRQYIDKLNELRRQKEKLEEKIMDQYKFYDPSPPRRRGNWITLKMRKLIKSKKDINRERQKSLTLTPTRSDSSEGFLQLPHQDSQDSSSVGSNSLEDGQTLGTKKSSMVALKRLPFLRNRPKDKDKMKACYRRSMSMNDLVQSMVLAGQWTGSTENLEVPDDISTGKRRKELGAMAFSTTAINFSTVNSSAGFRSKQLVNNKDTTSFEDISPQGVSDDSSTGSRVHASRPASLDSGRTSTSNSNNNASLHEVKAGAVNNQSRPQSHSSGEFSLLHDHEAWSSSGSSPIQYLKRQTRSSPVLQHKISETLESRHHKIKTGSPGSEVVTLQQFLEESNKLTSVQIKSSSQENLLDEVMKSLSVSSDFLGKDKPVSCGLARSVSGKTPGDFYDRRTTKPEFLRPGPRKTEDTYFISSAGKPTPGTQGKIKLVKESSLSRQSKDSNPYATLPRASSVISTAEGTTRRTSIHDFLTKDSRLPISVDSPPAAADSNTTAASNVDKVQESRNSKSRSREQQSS", "UniProt Q92851": "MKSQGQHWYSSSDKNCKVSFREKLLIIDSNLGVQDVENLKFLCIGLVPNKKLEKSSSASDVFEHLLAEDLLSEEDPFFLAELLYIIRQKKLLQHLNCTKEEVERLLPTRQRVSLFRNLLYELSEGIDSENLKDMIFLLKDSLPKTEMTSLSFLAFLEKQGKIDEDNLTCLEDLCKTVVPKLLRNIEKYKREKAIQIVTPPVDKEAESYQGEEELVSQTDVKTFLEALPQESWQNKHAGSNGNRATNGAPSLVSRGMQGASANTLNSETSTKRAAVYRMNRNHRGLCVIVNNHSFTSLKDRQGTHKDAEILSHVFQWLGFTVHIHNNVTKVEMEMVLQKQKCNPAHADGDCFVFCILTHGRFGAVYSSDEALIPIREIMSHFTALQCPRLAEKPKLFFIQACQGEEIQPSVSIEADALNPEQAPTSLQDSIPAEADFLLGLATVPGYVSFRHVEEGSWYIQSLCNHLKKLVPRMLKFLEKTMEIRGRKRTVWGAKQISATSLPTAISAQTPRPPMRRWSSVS", "UniProt Q96BQ5": "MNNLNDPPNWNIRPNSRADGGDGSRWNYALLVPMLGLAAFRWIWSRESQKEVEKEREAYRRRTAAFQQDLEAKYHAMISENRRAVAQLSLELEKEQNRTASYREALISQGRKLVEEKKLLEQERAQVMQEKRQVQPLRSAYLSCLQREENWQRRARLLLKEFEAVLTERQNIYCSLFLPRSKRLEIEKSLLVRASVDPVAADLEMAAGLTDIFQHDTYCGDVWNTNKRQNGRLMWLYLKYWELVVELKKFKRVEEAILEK", "UniProt P0C221": "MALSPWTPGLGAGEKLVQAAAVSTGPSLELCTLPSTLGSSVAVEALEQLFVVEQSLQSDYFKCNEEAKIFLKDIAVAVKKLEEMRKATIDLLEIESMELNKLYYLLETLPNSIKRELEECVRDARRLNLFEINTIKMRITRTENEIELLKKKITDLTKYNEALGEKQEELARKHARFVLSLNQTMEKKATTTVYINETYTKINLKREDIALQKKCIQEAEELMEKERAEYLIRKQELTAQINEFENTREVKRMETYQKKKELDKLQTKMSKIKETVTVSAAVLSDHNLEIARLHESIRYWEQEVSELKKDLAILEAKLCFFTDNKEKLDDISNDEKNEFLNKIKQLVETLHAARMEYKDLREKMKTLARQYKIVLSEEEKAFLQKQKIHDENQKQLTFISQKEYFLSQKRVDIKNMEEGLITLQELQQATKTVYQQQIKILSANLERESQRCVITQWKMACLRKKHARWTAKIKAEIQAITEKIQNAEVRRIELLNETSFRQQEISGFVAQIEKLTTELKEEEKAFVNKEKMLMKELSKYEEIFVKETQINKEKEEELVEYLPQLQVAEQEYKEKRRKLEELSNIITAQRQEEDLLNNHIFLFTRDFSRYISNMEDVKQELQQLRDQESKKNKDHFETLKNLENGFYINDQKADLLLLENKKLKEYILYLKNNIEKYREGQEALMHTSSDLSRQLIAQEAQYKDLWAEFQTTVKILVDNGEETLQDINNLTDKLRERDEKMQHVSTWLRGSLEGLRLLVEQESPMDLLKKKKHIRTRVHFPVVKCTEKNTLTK"}, "source": "the supplement of paper PMC10849652", "assay_in_all_cases": "log2 fold change, soluble protein after heating vs DMSO (PISA); higher = thermal stabilisation; K562 lysate, 10 uM; active = over 0.2 and 3.5 SD of the protein, either way, in both replicates (recomputed)", "key": {"[1]": {"compound": "Cc1sc2c(c1C)C(c1ccc(Cl)cc1)=N[C@@H](CC(=O)OC(C)(C)C)c1nnc(C)n1-2", "how_it_was_run": "(§1)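 Quantification was by TMTpro 16plex LC-MS/MS with equalised channel sums, applied to the supernatant after 21,000xg for 90 min. Samples were crude K562 extract at 1 mg/mL protein in PBS pH 7.4 with 1 mM MgCl2, treated with 10 μM compound for 30 min, heated for 3 min across 48°C-58°C, pooled and brought to 0.5% NP-40 at 4°C. Values are log-two fold changes in thermal stability relative to solvent controls, from duplicates.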"}, "[2]": {"compound": "CC1=C2C(=CC=C1)N=C(N(C2=O)C3=CC=CC=C3C)CN4C=NC5=C(N=CN=C54)N", "how_it_was_run": "as §1"}, "[3]": {"compound": "c1ccc([C@@H]2C[C@H]2NC2CCNCC2)cc1", "how_it_was_run": "as §1"}, "[4]": {"compound": "C1=CC=C(C=C1)[C@H](COC2=CC3=C(C=C2)NC(=O)N3)NC(=O)C4=CC=CN(C4=O)CC5=CC(=C(C=C5)F)F", "how_it_was_run": "as §1"}, "[5]": {"compound": "CC1=C(SC2=C1C(=N[C@H](C3=NN=C(N32)C)CC(=O)N)C4=CC=C(C=C4)Cl)C", "how_it_was_run": "as §1"}}, "note": "Some of the results follow."}
{"target": "CD79B isoform 3 (UniProt P40259)", "values": [{"measurement": "log2 fold change", "setting": "[1]", "result": "inactive: 0.283"}]}
{"target": "CD80 (UniProt P33681)", "values": [{"measurement": "log2 fold change", "setting": "[2]", "result": "inactive: 0.032"}, {"measurement": "log2 fold change", "setting": "[1]", "result": "inactive: 0.018"}, {"measurement": "log2 fold change", "setting": "[3]", "result": "inactive: 0.048"}]}
{"target": "CD109 (UniProt Q6YHK3)", "values": [{"measurement": "log2 fold change", "setting": "[3]", "result": "inactive: -0.033"}]}
{"target": "CBFB (UniProt Q13951)", "values": [{"measurement": "log2 fold change", "setting": "[4]", "result": "inactive: 0.016"}, {"measurement": "log2 fold change", "setting": "[5]", "result": "inactive: 0.02"}, {"measurement": "log2 fold change", "setting": "[1]", "result": "inactive: -0.04"}, {"measurement": "log2 fold change", "setting": "[3]", "result": "inactive: 0.003"}]}
{"target": "CBX3 (UniProt B8ZZ43)", "values": [{"measurement": "log2 fold change", "setting": "[3]", "result": "inactive: -0.079"}]}
{"target": "CASP8AP2 (UniProt Q9UKL3)", "values": [{"measurement": "log2 fold change", "setting": "[4]", "result": "inactive: -0.048"}, {"measurement": "log2 fold change", "setting": "[5]", "result": "inactive: 0.064"}, {"measurement": "log2 fold change", "setting": "[3]", "result": "inactive: 0.042"}]}
{"target": "CCDC8 (UniProt Q9H0W5)", "values": [{"measurement": "log2 fold change", "setting": "[1]", "result": "inactive: -0.003"}]}
{"target": "CAV2 (UniProt P51636)", "values": [{"measurement": "log2 fold change", "setting": "[1]", "result": "inactive: -0.27"}, {"measurement": "log2 fold change", "setting": "[3]", "result": "inactive: -0.158"}]}
{"target": "CCNL1 (UniProt Q9UK58)", "values": [{"measurement": "log2 fold change", "setting": "[3]", "result": "inactive: -0.109"}]}
{"target": "CARHSP1 (UniProt H3BNU9)", "values": [{"measurement": "log2 fold change", "setting": "[4]", "result": "inactive: -0.034"}, {"measurement": "log2 fold change", "setting": "[5]", "result": "inactive: -0.224"}, {"measurement": "log2 fold change", "setting": "[3]", "result": "inactive: 0.094"}]}
{"target": "CD276 (UniProt Q5ZPR3)", "values": [{"measurement": "log2 fold change", "setting": "[3]", "result": "inactive: 0.127"}]}
{"target": "CCT6B isoform 3 (UniProt Q92526)", "values": [{"measurement": "log2 fold change", "setting": "[2]", "result": "inactive: 0.068"}, {"measurement": "log2 fold change", "setting": "[1]", "result": "inactive: -0.319"}]}
{"target": "CCDC88A isoform 2 (UniProt Q3V6T2)", "values": [{"measurement": "log2 fold change", "setting": "[3]", "result": "inactive: -0.104"}]}
{"target": "CASP10 isoform 2 (UniProt Q92851)", "values": [{"measurement": "log2 fold change", "setting": "[1]", "result": "inactive: 0.1"}]}
{"target": "CCDC127 (UniProt Q96BQ5)", "values": [{"measurement": "log2 fold change", "setting": "[4]", "result": "inactive: -0.052"}, {"measurement": "log2 fold change", "setting": "[5]", "result": "inactive: -0.053"}, {"measurement": "log2 fold change", "setting": "[1]", "result": "inactive: 0.043"}, {"measurement": "log2 fold change", "setting": "[3]", "result": "inactive: -0.026"}]}
{"target": "CCDC175 (UniProt P0C221)", "values": [{"measurement": "log2 fold change", "setting": "[2]", "result": "inactive: 0.201"}, {"measurement": "log2 fold change", "setting": "[3]", "result": "inactive: -0.158"}]}
